{
  "source": "paper PMC12670160",
  "about": "“A drug-repurposing screen of FDA- and EMA-approved drugs identifies two NF-κB inhibitors active against eumycetoma” (Journal of Antimicrobial Chemotherapy, 2025)",
  "tested_on": "M. mycetomatis strain mm55",
  "conditions": "primary screen, metabolic activity vs growth control, 96 h, 2 µM, inhibitor",
  "note": "Where a name gives a salt, the structure may show the parent alone. Read-outs that look alike come from different tables or passages of the source. Among all 5,300 compounds or so, about 130 (2.5%) showed an effect of 50% or more. Some of the results follow.",
  "data": [
    {"smiles": "CCCCCCCCN=c1ccn(CCCCCCCCCCn2ccc(=NCCCCCCCC)cc2)cc1", "note": "[ONC0002745, octenidine dihydrochloride]", "values": [
      {"measurement": "% viability", "result": 205.7, "unit": "%"}
    ]},
    {"smiles": "COc1ccc(C(=O)NCc2ccc(OCCN(C)C)cc2)cc1OC", "note": "[ONC0004008, itopride hydrochloride]", "values": [
      {"measurement": "% viability", "result": 60.78, "unit": "%"}
    ]},
    {"smiles": "CC(C)CN(C[C@@H](OP(=O)(O)O)[C@H](Cc1ccccc1)NC(=O)O[C@H]1CCOC1)S(=O)(=O)c1ccc(N)cc1", "note": "[ONC0001934, fosamprenavir]", "values": [
      {"measurement": "% viability", "result": 68.14, "unit": "%"}
    ]},
    {"smiles": "CC[C@@H](Nc1c(Nc2cccc(C(=O)N(C)C)c2O)c(=O)c1=O)c1ccc(C)o1", "note": "[ONC0000897, navarixin]", "values": [
      {"measurement": "% viability", "result": 86.41, "unit": "%"}
    ]},
    {"smiles": "COc1cc(N2CCN(C(C)=O)CC2)ccc1Nc1ncc(Cl)c(Nc2ccc(N3CCN(C(C)=O)CC3)cc2OC)n1", "note": "[ONC0003574, krca0008]", "values": [
      {"measurement": "% viability", "result": 122, "unit": "%"}
    ]},
    {"smiles": "CN(C)Cc1cccc(N/C(=C2\\C(=O)Nc3cc(C(N)=O)ccc32)c2ccccc2)c1", "note": "[ONC0004857, bix 02188]", "values": [
      {"measurement": "% viability", "result": 98.87, "unit": "%"}
    ]},
    {"smiles": "Cc1cnc(CNC(=O)c2c(=O)c3ccc(N4CCCN(C)CC4)nc3n3c2sc2ccccc23)cn1", "note": "[ONC0002208, cx5461]", "values": [
      {"measurement": "% viability", "result": 69.16, "unit": "%"}
    ]},
    {"smiles": "O=C(Nc1ccccc1C(=O)Nc1ccc(CCO)cc1)c1ccc([N+](=O)[O-])cc1", "note": "[ONC0001772, ks176]", "values": [
      {"measurement": "% viability", "result": 95.92, "unit": "%"}
    ]},
    {"smiles": "Nc1ncnc2c1c(-c1ccc(Cl)cc1)nn2-c1cccc(-c2cnnn2Cc2cccc(-c3ccccc3)c2)c1", "note": "[ONC0004379, kbsrc4]", "values": [
      {"measurement": "% viability", "result": 160.9, "unit": "%"}
    ]},
    {"smiles": "O=C(c1cc(O)c(O)c(O)c1)c1ccc(O)c(O)c1O", "note": "[ONC0005442, exifone]", "values": [
      {"measurement": "% viability", "result": 114.2, "unit": "%"}
    ]},
    {"smiles": "C=C1C(=O)O[C@@H]2C[C@@]3(C)CCC[C@H](C)C3=C[C@H]12", "note": "[ONC0000067, alantolactone]", "values": [
      {"measurement": "% viability", "result": 159.8, "unit": "%"}
    ]},
    {"smiles": "Cc1c(C(=O)NN2CCOCC2)nn(-c2ccc(Cl)cc2Cl)c1-c1ccc(I)cc1", "note": "[ONC0000357, am281]", "values": [
      {"measurement": "% viability", "result": 71.97, "unit": "%"}
    ]},
    {"smiles": "COc1ccc2nc(NC(=O)Nc3ccccc3)sc2c1", "note": "[ONC0001834, frentizole]", "values": [
      {"measurement": "% viability", "result": 101.5, "unit": "%"}
    ]},
    {"smiles": "N#Cc1c(-c2ccccc2)cc(-c2cc(Br)ccc2O)[nH]c1=O", "note": "[ONC0000184, tcspim11]", "values": [
      {"measurement": "% viability", "result": 67.05, "unit": "%"}
    ]},
    {"smiles": "CC(C)Oc1ccc2c(=O)c3cc(C(=O)O)ccc3oc2c1", "note": "[ONC0003031, ah6809]", "values": [
      {"measurement": "% viability", "result": 81.53, "unit": "%"}
    ]},
    {"smiles": "Nc1ncnc2c1ncn2[C@@H]1O[C@H](COP(=O)(O)OP(=O)(O)OP(=O)(O)O)[C@@H](O)[C@H]1O", "note": "[ONC0003884, adenosine triphosphate disodium]", "values": [
      {"measurement": "% viability", "result": 91.31, "unit": "%"}
    ]},
    {"smiles": "CCC(=O)O[C@]1(C(=O)CCl)[C@@H](C)C[C@H]2[C@@H]3C[C@H](F)C4=CC(=O)C=C[C@]4(C)[C@@]3(F)[C@@H](O)C[C@@]21C", "note": "[ONC0005192, halobetasol propionate]", "values": [
      {"measurement": "% viability", "result": 116.1, "unit": "%"}
    ]},
    {"smiles": "O=C1OC2(c3cc(I)c(O)c(I)c3Oc3c2cc(I)c(O)c3I)c2c(Cl)c(Cl)c(Cl)c(Cl)c21", "note": "[ONC0002983, rosebengallactone]", "values": [
      {"measurement": "% viability", "setting": "Madurella mycetomatis metabolic activity at 2µM (%)", "result": 60.55, "unit": "%"}
    ]},
    {"smiles": "O=C(C[C@H]1NCCC[C@@H]1O)Cn1cnc2cc(Br)c(Cl)cc2c1=O", "note": "(racemic) [ONC0004939, halofuginone]", "values": [
      {"measurement": "% viability", "result": 90.07, "unit": "%"}
    ]},
    {"smiles": "C[C@@H](CN1CC(=O)NC(=O)C1)N1CC(=O)NC(=O)C1", "note": "[ONC0001431, dexrazoxane]", "values": [
      {"measurement": "% viability", "result": 71.57, "unit": "%"}
    ]},
    {"smiles": "CC(=O)Nc1ccc(CC(=O)O)cc1", "note": "[ONC0000495, actarit]", "values": [
      {"measurement": "% viability", "result": 68.16, "unit": "%"}
    ]},
    {"smiles": "Cc1nc2n(c(=O)c1CCN1CCC(c3noc4cc(F)ccc34)CC1)CCCC2", "note": "[ONC0005370, risperidone]", "values": [
      {"measurement": "% viability", "result": 102.3, "unit": "%"}
    ]},
    {"smiles": "CNCCC(Oc1ccc(C(F)(F)F)cc1)c1ccccc1", "note": "(stereo not drawn) [ONC0002299, fluoxetine hydrochloride]", "values": [
      {"measurement": "% viability", "result": 68.8, "unit": "%"}
    ]},
    {"smiles": "Cn1nccc1Nc1nccc(-c2ccn([C@H](CO)c3ccc(Cl)c(F)c3)c(=O)c2)n1", "note": "[ONC0000398, ravoxertinib]", "values": [
      {"measurement": "% viability", "result": 82.99, "unit": "%"}
    ]},
    {"smiles": "CCCCc1ccc(C(N)=O)nc1", "note": "[ONC0003779, bupicomide]", "values": [
      {"measurement": "% viability", "result": 132.3, "unit": "%"}
    ]},
    {"smiles": "O=C(O)Cc1sc(-c2ccccc2)nc1-c1ccc(Cl)cc1", "note": "[ONC0002498, fentiazac]", "values": [
      {"measurement": "% viability", "result": 100.8, "unit": "%"}
    ]},
    {"smiles": "C1CCN2C[C@@H]3C[C@H](CN4CCCC[C@@H]34)[C@H]2C1", "note": "[ONC0003305, sparteine sulfate]", "values": [
      {"measurement": "% viability", "result": 54.74, "unit": "%"}
    ]},
    {"smiles": "CN1C(=O)N(c2cc(Cl)cc(Cl)c2)C(=O)[C@@]1(C)Cc1ccc(Br)cc1", "note": "[ONC0001659, birt377]", "values": [
      {"measurement": "% viability", "result": 74.89, "unit": "%"}
    ]},
    {"smiles": "OCc1cc(C(O)CNCCCCCCOCCCCc2ccccc2)ccc1O", "note": "(stereo not drawn) [ONC0001334, salmeterol xinafoate]", "values": [
      {"measurement": "% viability", "result": 116.3, "unit": "%"}
    ]},
    {"smiles": "C#CCN1C(C)=C(C(=O)OC)C(c2cccc([N+](=O)[O-])c2)C(C(=O)OCC)=C1C", "note": "(stereo not drawn) [ONC0003025, mrs1845]", "values": [
      {"measurement": "% viability", "result": 70.89, "unit": "%"}
    ]},
    {"smiles": "Clc1ccccc1CNC[C@H]1CC[C@H](CNCc2ccccc2Cl)CC1", "note": "[ONC0002740, ay9944]", "values": [
      {"measurement": "% viability", "result": 106.2, "unit": "%"}
    ]},
    {"smiles": "CC(C)(C)NC[C@H](O)c1ccc(O)c(CO)c1", "note": "[ONC0003419, levalbuterol hydrochloride]", "values": [
      {"measurement": "% viability", "result": 61.97, "unit": "%"}
    ]},
    {"smiles": "CC(=O)O[C@]1(C(C)=O)CC[C@H]2[C@@H]3C=CC4=CC(=O)CC[C@]4(C)[C@H]3CC[C@@]21C", "note": "[ONC0002972, 67dehydro17acetoxyprogesterone]", "values": [
      {"measurement": "% viability", "result": 57.76, "unit": "%"}
    ]},
    {"smiles": "CN(C)C1CCN(C(=O)c2ccc(NC(=O)Nc3ccc(-c4nc(N5CCOCC5)nc(N5CCOCC5)n4)cc3)cc2)CC1", "note": "[ONC0004930, pf05212384 pki587]", "values": [
      {"measurement": "% viability", "result": 94.79, "unit": "%"}
    ]},
    {"smiles": "CC(=O)Nc1c(I)c(C(=O)O)c(I)c(N(C)C(C)=O)c1I", "note": "[ONC0002767, metrizoic acid]", "values": [
      {"measurement": "% viability", "result": 98.58, "unit": "%"}
    ]},
    {"smiles": "CCOc1cc(C=O)ccc1O", "note": "[ONC0002407, ethyl vanillin]", "values": [
      {"measurement": "% viability", "result": 88.16, "unit": "%"}
    ]},
    {"smiles": "COc1ccc(Nc2ncnc3ccc(OC)cc23)cc1", "note": "[ONC0003007, ly456236]", "values": [
      {"measurement": "% viability", "result": 87.69, "unit": "%"}
    ]},
    {"smiles": "O=S(=O)(O)CCS", "note": "[ONC0000549, mesna]", "values": [
      {"measurement": "% viability", "result": 101.2, "unit": "%"}
    ]},
    {"smiles": "CCn1cc(C(=O)O)c(=O)c2cnc(N3CCCC3)nc21", "note": "[ONC0003907, piromidic acid]", "values": [
      {"measurement": "% viability", "result": 74.26, "unit": "%"}
    ]}
  ]
}
